{"source": "PubChem BioAssay AID1259308 (NCATS, 2017)", "test": "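Knock-downs that increase output of a recombinant reporter protein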 (primary screen)", "cell system": "human HEK293 embryonic kidney cells stably expressing firefly luciferase (HEK-CMV-Luc2-Hygro)", "knock-down reagent": "single siRNA against human genes, 0.8 pmol siRNA per well", "timing": "72 h", "measurement": "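Luciferase light (ONE-Glo) measured on one replicate plate set and viability (CellTiter-Glo) on the other, scaled to a negative control siRNA, with robust z-scores and luciferase per cell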", "reading the numbers": "total luciferase, z-score: higher = more reporter protein produced", "active means": "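An siRNA counts as active if its total luciferase robust z-score exceeds 3; genes with two or more such siRNAs out of three were retested with fresh siRNAs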", "calls": "active = raised luciferase; inactive = no rise", "note": "Shown is one part, drawn at random, of about 59,000 reagents tested. Over the whole deposit, about 1,510 (2.6%) were called active. 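Calls use total luciferase alone and ignore viability, so some active siRNAs may act by altering cell number.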 The numbers tell different reagents against one gene apart. Not all columns of the deposit are shown."}
{"gene symbol":"ATG10","reagent no.":1,"total luciferase, z-score":-0.224,"call":"inactive"}
{"gene symbol":"ATG10","reagent no.":2,"total luciferase, z-score":-0.282,"call":"inactive"}
{"gene symbol":"ATG10","reagent no.":3,"total luciferase, z-score":1.32,"call":"inactive"}
{"gene symbol":"RTL8B","reagent no.":1,"total luciferase, z-score":-0.321,"call":"inactive"}
{"gene symbol":"RTL8B","reagent no.":2,"total luciferase, z-score":1.3,"call":"inactive"}
{"gene symbol":"RTL8B","reagent no.":3,"total luciferase, z-score":-1.05,"call":"inactive"}
{"gene symbol":"FRMPD3","reagent no.":1,"total luciferase, z-score":-0.305,"call":"inactive"}
{"gene symbol":"FRMPD3","reagent no.":2,"total luciferase, z-score":-0.532,"call":"inactive"}
{"gene symbol":"FRMPD3","reagent no.":3,"total luciferase, z-score":-0.801,"call":"inactive"}

Next part; the last 2 above are carried over.
{"gene symbol":"FRMPD3","reagent no.":2,"total luciferase, z-score":-0.532,"call":"inactive"}
{"gene symbol":"FRMPD3","reagent no.":3,"total luciferase, z-score":-0.801,"call":"inactive"}
{"gene symbol":"TMEM245","reagent no.":1,"total luciferase, z-score":0.909,"call":"inactive"}
{"gene symbol":"TMEM245","reagent no.":2,"total luciferase, z-score":-0.77,"call":"inactive"}
{"gene symbol":"TMEM245","reagent no.":3,"total luciferase, z-score":0.675,"call":"inactive"}
{"gene symbol":"VPS36","reagent no.":1,"total luciferase, z-score":-2.84,"call":"inactive"}
{"gene symbol":"VPS36","reagent no.":2,"total luciferase, z-score":1.28,"call":"inactive"}
{"gene symbol":"VPS36","reagent no.":3,"total luciferase, z-score":0.438,"call":"inactive"}
{"gene symbol":"SLC52A2","reagent no.":1,"total luciferase, z-score":1.62,"call":"inactive"}
{"gene symbol":"SLC52A2","reagent no.":2,"total luciferase, z-score":-1.11,"call":"inactive"}
{"gene symbol":"SLC52A2","reagent no.":3,"total luciferase, z-score":0.464,"call":"inactive"}
{"gene symbol":"FAM186B","reagent no.":1,"total luciferase, z-score":1.47,"call":"inactive"}
{"gene symbol":"FAM186B","reagent no.":2,"total luciferase, z-score":-0.282,"call":"inactive"}
{"gene symbol":"FAM186B","reagent no.":3,"total luciferase, z-score":-0.142,"call":"inactive"}
